The values below come from PMC12368222.

The chains behind the UniProt entries cited, without tags or fusion partners. Residues count along the entry.
UniProt P00873, residues 46-185: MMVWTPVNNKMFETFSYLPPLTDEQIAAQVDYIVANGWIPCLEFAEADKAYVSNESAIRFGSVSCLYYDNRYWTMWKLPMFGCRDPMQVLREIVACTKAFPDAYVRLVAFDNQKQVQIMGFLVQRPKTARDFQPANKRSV

Results are given in words; binding and its absence hold for the method and conditions named. Some binding calls cover weakened binding; strength is not graded here.

For this assay, the target named is Rubisco large subunit (ribulose-1,5-bisphosphate carboxylase/oxygenase large subunit), Chlamydomonas reinhardtii (C. reinhardtii (endogenous in strain CC-1690)) (UniProt P00877). The assay can be described thus: cryo-EM structure; in-cell cryo-electron tomography of cryo-FIB milled C. reinhardtii cells, subtomogram averaging, class 12, D4 symmetry applied, 8.1 Å, MDFF model fitted.

For “Rubisco large subunit (ribulose-1,5-bisphosphate carboxylase/oxygenase large subunit), Chlamydomonas reinhardtii (from UniProt P00877 1-475)”, the binding result was “binds”. As to “Rubisco small subunit (ribulose-1,5-bisphosphate carboxylase/oxygenase small subunit), Chlamydomonas reinhardtii (from UniProt P00873 46-185)”, the binding result is “binds”.
